Laboratory results: patent publication US6416740B1 (Bristol-Myers Squibb Medical Imaging, Inc., priority 1997, dated 2002)
At least one structure is not confirmed: it was looked up by name or label, or the drawing left a doubt.

Assays:
[1] = Dexamethasone payload in PEG Telomer B aggregate (Sephacryl column, UV 235 nm); assay type: physicochemical; conditions: 1 ml of 10 mg/ml suspension on Sephacryl S-200-HR column
[2] = Drug release by horn sonication (UV-visible spectrophotometry of lipid and non-lipid fractions); assay type: physicochemical; conditions: dexamethasone plus PEG Telomer B in soybean oil, perfluorobutane

Which “entire recovered free (unentrapped) dexamethasone” value [1] does the source give for `C[C@@H]1C[C@H]2[C@@H]3CCC4=CC(=O)C=C[C@]4(C)[C@@]3(F)[C@@H](O)C[C@]2(C)[C@@]1(O)C(=O)CO` [Dexamethasone] here?
Its value is 7.3 µg.

And the “release of drug following Horn sonication” value [2]?
The value was “successful release of the drug”.
